For assay [1], the target named is GPRC5B, split-TEV fusions (GPRC5B-TEV-N and GPRC5B-TEV-C) (human) (UniProt Q9NZH0). The assay can be described thus: split reporter; split-TEV protease complementation in HEK293T cells: one copy fused to TEV-N, TEV site and GV, the other to TEV-C; Gaussia luciferase reporter in the supernatant after 48 h, normalised to β-galactosidase. A general note: A reporter such as luciferase makes a cellular process visible.

The chains behind the UniProt entries cited, without tags or fusion partners. Where a name states a change or a piece, a line headed by the entry shows the natural chain unless it says otherwise. Residues count along the entry.
GPRC5B, wild type, NanoBiT fusions (GPRC5B–SmBiT and GPRC5B–LgBiT) (Q9NZH0, residues 29-403): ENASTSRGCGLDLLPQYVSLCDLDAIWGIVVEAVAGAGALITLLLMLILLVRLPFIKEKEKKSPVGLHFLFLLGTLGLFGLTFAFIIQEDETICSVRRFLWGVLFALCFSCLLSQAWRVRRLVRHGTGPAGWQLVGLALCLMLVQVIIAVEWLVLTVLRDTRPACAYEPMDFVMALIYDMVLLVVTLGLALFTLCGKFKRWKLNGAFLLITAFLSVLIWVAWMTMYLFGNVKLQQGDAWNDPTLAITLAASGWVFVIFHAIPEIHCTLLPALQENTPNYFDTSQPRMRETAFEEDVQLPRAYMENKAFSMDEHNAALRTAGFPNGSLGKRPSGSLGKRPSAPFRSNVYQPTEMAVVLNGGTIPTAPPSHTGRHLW

Assay [2] concerns the target GPRC5B, BRET fusions (GPRC5B-RLuc and GPRC5B-YFP) (human) (UniProt Q9NZH0). The assay can be described thus: FRET or BRET; BRET saturation in HEK293T cells: constant GPRC5B-RLuc (250 ng), increasing GPRC5B-YFP; 48 h after transfection; h-coelenterazine 5 μM; cells in PBS.
Assay [3] has as its target GPRC5B A177dup (MLC3 mutant), NanoBiT fusions (human) (UniProt Q9NZH0). The assay can be described thus: split reporter; NanoBiT (SmBiT/LgBiT) complementation in transiently transfected HEK293T cells, constitutive (no ligand); NanoLuc signal normalised to cotransfected RLuc.
For assay [4] the target is unchanged. Nature of the assay: split reporter; NanoBiT complementation in HEK293T cells with a third plasmid coexpressed: pCDNA3.1-empty, pCDNA3.1-MLC1, pCDNA3.1-GlialCAM (or LRRC8A as specificity control); NanoLuc signal normalised to RLuc.
The target in assay [5] is GPRC5B I176dup (MLC3 mutant), NanoBiT fusions (human) (UniProt Q9NZH0). The assay can be described thus: split reporter; NanoBiT (SmBiT/LgBiT) complementation in transiently transfected HEK293T cells, constitutive (no ligand); NanoLuc signal normalised to cotransfected RLuc.
The target in assay [6] is GPRC5B, wild type, NanoBiT fusions (GPRC5B–SmBiT and GPRC5B–LgBiT) (human) (UniProt Q9NZH0). The assay is described as above.
Assay [7] concerns the target GPRC5B I176dup (MLC3 mutant), NanoBiT fusions (human) (UniProt Q9NZH0). Nature of the assay: split reporter; NanoBiT complementation in HEK293T cells with a third plasmid coexpressed: pCDNA3.1-empty, pCDNA3.1-MLC1, pCDNA3.1-GlialCAM (or LRRC8A as specificity control); NanoLuc signal normalised to RLuc.
For assay [8], the target named is GPRC5B, wild type, NanoBiT fusions (GPRC5B–SmBiT and GPRC5B–LgBiT) (human) (UniProt Q9NZH0). The assay is described as above.
The target of assay [9] is GPRC5B A177dup (MLC3 mutant), NanoBiT fusions (human) (UniProt Q9NZH0). The assay can be described thus: split reporter; NanoBiT (SmBiT/LgBiT) complementation in transiently transfected HEK293T cells, constitutive (no ligand); NanoLuc signal normalised to cotransfected RLuc. This is another data set of the same source.
The target of assay [10] is GPRC5B I176dup (MLC3 mutant), NanoBiT fusions (human) (UniProt Q9NZH0). The assay is described as above. This is another data set of the same source.
The target of assay [11] is GPRC5B, wild type, NanoBiT fusions (GPRC5B–SmBiT and GPRC5B–LgBiT) (human) (UniProt Q9NZH0). The description is as above. This is another data set of the same source.

Among the data in publication PMC12775950 are binding values, retold here.

Results are given in words; binding and its absence hold for the method and conditions named. Binding seen in cells or lysates may run through a third protein. Some binding calls cover weakened binding; strength is not graded here. For some assays here: Where a sequence is shown, tags or fusion partners need not be part of it.

With “GPRC5B, split-TEV fusions (GPRC5B-TEV-N and GPRC5B-TEV-C) (from UniProt Q9NZH0 29-403) (receptor)”, in assay [1], the binding result is given as “binds”.

With “GPRC5B, BRET fusions (GPRC5B-RLuc and GPRC5B-YFP) (from UniProt Q9NZH0 29-403) (receptor)”, in assay [2], the binding entry is reported as “binds”.

With “GPRC5B A177dup (MLC3 mutant), NanoBiT fusions (from UniProt Q9NZH0 29-403) (receptor)”, the binding result in assay [3] and in assay [4] was “binds” throughout.

Consider “β-arrestin 2 fused to LgBiT (from UniProt P32121 1-409)”, for which the binding entry in assay [3], in assay [5], in assay [6], in assay [4], in [7] and in assay [8] was “binds” throughout.

With “GPRC5B, wild type, NanoBiT fusions (GPRC5B–SmBiT and GPRC5B–LgBiT) (from UniProt Q9NZH0 29-403) (receptor)”, the binding result in assay [6] and in assay [8] was “binds” each time.

In the case of “GPRC5B I176dup (MLC3 mutant), NanoBiT fusions (from UniProt Q9NZH0 29-403) (receptor)”, the binding result in [5] and in assay [7] was “binds” throughout.

B1: MLC1, SmBiT-tagged (protein, UniProt Q15049 1-377)
chain: MTQEPFREELAYDRMPTLERGRQDPASYAPDAKPSDLQLSKRLPPCFSHKTWVFSVLMGSCLLVTSGFSLYLGNVFPAEMDYLRCAAGSCIPSAIVSFTVSRRNANVIPNFQILFVSTFAVTTTCLIWFGCKLVLNPSAININFNLILLLLLELLMAATVIIAARSSEEDCKKKKGSMSDSANILDEVPFPARVLKSYSVVEVIAGISAVLGGIIALNVDDSVSGPHLSVTFFWILVACFPSAIASHVAAECPSKCLVEVLIAISSLTSPLLFTASGYLSFSIMRIVEMFKDYPPAIKPSYDVLLLLLLLVLLLQAGLNTGTAIQCVRFKVSARLQGASWDTQNGPQERLAGEVARSPLKEFDKEKAWRAVVVQMAQ
Regarding B1, the binding entry in assay [9], in [10] and in assay [11] was “binds” throughout.

B2: GlialCAM, SmBiT-tagged (protein, UniProt Q14CZ8 34-416)
chain: VNITSPVRLIHGTVGKSALLSVQYSSTSSDRPVVKWQLKRDKPVTVVQSIGTEVIGTLRPDYRDRIRLFENGSLLLSDLQLADEGTYEVEISITDDTFTGEKTINLTVDVPISRPQVLVASTTVLELSEAFTLNCSHENGTKPSYTWLKDGKPLLNDSRMLLSPDQKVLTITRVLMEDDDLYSCMVENPISQGRSLPVKITVYRRSSLYIILSTGGIFLLVTLVTVCACWKPSKRKQKKLEKQNSLEYMDQNDDRLKPEADTLPRSGEQERKNPMALYILKDKDSPETEENPAPEPRSATEPGPPGYSVSPAVPGRSPGLPIRSARRYPRSPARSPATGRTHSSPPRAPSSPGRSRSASRTLRTAGVHIIREQDEAGPVEISA
Turning to B2, the binding result in [9], in assay [10] and in assay [11] was “binds” in each case.
